In publication PMC6952110, “A divergent CheW confers plasticity to nucleoid-associated chemosensory arrays” (PLoS Genetics, 2019):
Results are given in words; binding and its absence hold for the method and conditions named. Binding seen in cells or lysates may run through a third protein. Some entries that bind do so weakly or less than the wild type. Tags and fused reporters may be left off the sequences shown.

Experiments:
GST-FrzA (M. xanthus) = target: T1, GST-FrzA (M. xanthus) (UniProt P43498); experiment: pull-down; GST-affinity chromatography co-purification; E. coli cells expressing each protein mixed one to one and lysed together; 50 mM TrisHCl pH 8, 300 mM NaCl; eluted with 10 mM reduced glutathione
T1 sequence: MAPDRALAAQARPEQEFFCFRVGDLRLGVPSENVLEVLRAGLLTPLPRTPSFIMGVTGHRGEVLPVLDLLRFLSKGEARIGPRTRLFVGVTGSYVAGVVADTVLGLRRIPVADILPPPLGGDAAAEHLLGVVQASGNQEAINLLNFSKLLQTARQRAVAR

GST-FrzB (M. xanthus) = target: T2, GST-FrzB (M. xanthus) (UniProt P43499); experiment: as above
T2 sequence: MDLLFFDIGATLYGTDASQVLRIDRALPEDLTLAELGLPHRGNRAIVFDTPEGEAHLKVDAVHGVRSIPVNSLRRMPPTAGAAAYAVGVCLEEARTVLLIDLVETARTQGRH

binding (GST-FrzA (M. xanthus)): binds | binding (GST-FrzB (M. xanthus)): binds
B1: 6His-FrzCD (receptor, UniProt P43500 1-417)
chain: MSLDTPNEKPAGKARARKAPASKAGATNAASTSSSTKAITDTLLTVLSGNLQARVPKELVGESGVELAHLLNQVLDQFAASEHRKHVAAQEIDQALDALIGLVREGDLSRWNTTTEDPQLGPLLEGFGKVIETLRTFVREINEAALRLSSSANQVLAASTQHETSSTEQAAAIHETTATMEELKHASAQIAENAGSVARVAEETLGAARAGRGAIGEFIQAMQQIRSDGVAVADSIAKLSKRVERIGTVVEVIDEIADRSDLLALNAALEGSRAGEAGKGFSIVAAEMRRLAENVLDSTKEIKNLITEIREATAAAAGAAEASKSATESGEKLGAVAAQAVEGILAGVQETSDAARVINLATQQQRTATEQVVASMAEIEDVTRQTTQASKQATGAAAELTQLAGRLAELIKRFKAD
